Experimental data from US20230112484A1, “COMPOSITIONS FOR CROP PROTECTION” (Agrematch Ltd., priority 2020, published 2023).
Some of these results come from one statement about several compounds together. For at least one compound, name, drawing or mass did not settle the structure.

Columns and labels:
Type in all cases: in vivo
Amaranthus palmeri [1] = assay: Post-emergence application (Example 5); conditions: applying to a plant
Procedure: For post-emergence application, compounds were dissolved in DMSO and then in distilled water to get 0.05-2 mg/ml solution with 2% DMSO. Break-Thru surfactant was added to a final concentration of 0.05%. Negative control—an aqueous solution of 2% DMSO and 0.05% Break-Thru. Positive control—2 mg/ml Glyphosate (Roundup). For post-emergence application, 1.5 ml of each compound solution were sprayed on the foliage of Amaranthus palmeri, which were 10 days old at the day of the experiment. Each treatment contained 3 pots. Plants were let dry for about 15 minutes at room conditions, and then incubated at controlled growth chambers. Phytotoxicity was assessed and scored 4-10 days after applications. Scoring scale: 0—complete phytotoxic effect, 100—no effect.

Amaranthus palmeri [2] = assay: Pre-emergence application (Example 5); conditions: applying to the area under cultivation
Procedure: For pre-emergence application, compounds were dissolved in DMSO and then in distilled water to get 0.1-2 mg/ml solution with 2% DMSO. 2% DMSO solution in water was used as a negative control. As a positive control, 0.2 mg/ml oxyfluorfen ([…]) solution was used. For pre-emergence application, flowerpots were filled with 30 g of soil, and 4-5 Amaranthus palmeri seeds were sowed in each flowerpot. Each treatment contained 3 flowerpots. Each flowerpot was sprayed with 1.5 ml of the dissolved compound. Soil was let dry for about 1 hour at room conditions, and then each flowerpot was sub-irrigated with 40 ml water and incubated under conditions provided below. Amaranthus palmeri was incubated at 25° C. for 8 hr in dark, followed by 16 hr at 30° C. in light. Germination was assessed and scored after 4-7 days. Scoring scale: 0-complete germination inhibition, 100-no effect.

Amaranthus palmeri [3] = assay: Soil germination (Example 1); conditions: concentration not given
Procedure: Compounds were dissolved in DMSO and then in distilled water to get 0.01-2 mg/ml solution with 1% or 2% DMSO. 1% or 2% DMSO solution in water was used as a negative control. As a positive control, 0.1 or 0.2 mg/ml oxyfluorfen (Galigan) solution was used.
Flowerpots were filled with 30 g of soil, and 4-5 seeds were sowed in each flowerpot. Each treatment contained 3 flowerpots. Each flowerpot was sprayed with 1.5 ml of the dissolved compound. Soil was let dry for about 1 hour at room conditions, and then each flowerpot was sub-irrigated with 40 ml water and incubated under conditions provided below.
Amaranthus palmeri was incubated at 25° C. for 8 hr in dark, followed by 16 hr at 30° C. in light. Lolium rigidum was incubated at 21° C. for 8 hr in dark, followed by 16 hr at 21° C. in light. Germination was assessed and scored after 4-7 days. Scoring scale: 0—complete germination inhibition, 100—no effect.

SMILES | Herbicidal effect against Amaranthus palmeri, result in words (Amaranthus palmeri [1]) | Herbicidal effect against Amaranthus palmeri, result in words (Amaranthus palmeri [2]) | soil germination of Amaranthus palmeri, result in words (Amaranthus palmeri [3])
CC(Cl)/C=C/C(=O)N(Cc1ccc(C#N)nc1)CC(C)C (stereo not shown) [Compound 13] | herbicidal effect | herbicidal effect | –
CC(Cl)/C=C/C(=O)N(CCC(C)C)Cc1cnc(Cl)s1 (stereo not shown) [Compound 15] | herbicidal effect | herbicidal effect | –
CCC#CCN(CC(C)C)C(=O)/C=C/C(C)Cl (stereo not shown) [Compound 8] | herbicidal effect | herbicidal effect | –
CC(Cl)/C=C/C(=O)N(CCC(C)C)CCC(C)C (stereo not shown) [Compound 16] | herbicidal effect | herbicidal effect | –
CC(Cl)/C=C/C(=O)N(CC(C)C)CC(F)(F)F (stereo not shown) [Compound 11] | herbicidal effect | herbicidal effect | –
CC(F)/C=C/C(=O)N(Cc1ccc(Cl)nc1)CC(C)C (stereo not shown) [Compound 3] | – | – | significantly reduced soil germination
Cc1ccsc1CN(CC(C)C)C(=O)/C=C/C(C)Cl (stereo not shown) [Compound 6] | – | – | significantly reduced soil germination
C#CCOCC#CCN(CC(C)C)C(=O)/C=C/C(C)Cl (stereo not shown) [Compound 10] | herbicidal effect | herbicidal effect | –
CC(Cl)/C=C/C(=O)N(CCC(C)C)Cc1ccc(Cl)nc1 (stereo not shown) [Compound 12] | herbicidal effect | herbicidal effect | –
CC(Cl)/C=C/C(=O)N(Cc1ccc(Cl)nc1)CC(C)C (stereo not shown) [Compound 2] | – | – | significantly reduced soil germination
CC(Cl)/C=C/C(=O)N(CCC(C)C)Cc1ccc(Cl)s1 (stereo not shown) [Compound 14] | herbicidal effect | herbicidal effect | –
CCOCC#CCN(CC(C)C)C(=O)/C=C/C(C)Cl (stereo not shown) [Compound 9] | herbicidal effect | herbicidal effect | –
CC(Cl)/C=C/C(=O)N(CC(C)C)CC(C)C (stereo not shown) [Compound 1] | – | – | significantly reduced soil germination
CC(Cl)/C=C/C(=O)N(Cc1ccc(Cl)s1)CC(C)C (stereo not shown) [Compound 4] | – | – | significantly reduced soil germination
CC#CCN(CC(C)C)C(=O)/C=C/C(C)Cl (stereo not shown) [Compound 7] | herbicidal effect | herbicidal effect | –
